± gives the standard deviation of the averaged measurements. The entries are a selection whose mix differs from that of the whole data set. Small differences around the control level are noise.
Each target was assayed with Nc1ncnc2c1ncn2[C@@H]1O[C@H](COP(=O)(O)OP(=O)(O)NP(=O)(O)O)[C@@H](O)[C@H]1O [adenylyl imidodiphosphate] (assay: NP40-soluble protein abundance relative to vehicle (solubility fold change) (ratio); higher = more soluble protein in presence of AMP-PNP). Conditions: concentration: 0.1mM.
In short: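 Values are fold changes against the detergent-processed vehicle, based on vsn-normalised intensities. Jurkat crude lysate was treated at eight concentrations from 0.1 to 10 mM (10 min at room temperature, then 3 min at 37 °C), solubilised with 0.8% NP40 and benzonase, ultracentrifuged and analysed by TMT-labelled LC-MS/MS over three independent experiments.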

By UniProt entry, the sequences of proteins in these tests, tags left out. Where a name states a change or a piece, a line headed by the entry shows the natural chain unless it says otherwise.
UniProt Q6P1N9: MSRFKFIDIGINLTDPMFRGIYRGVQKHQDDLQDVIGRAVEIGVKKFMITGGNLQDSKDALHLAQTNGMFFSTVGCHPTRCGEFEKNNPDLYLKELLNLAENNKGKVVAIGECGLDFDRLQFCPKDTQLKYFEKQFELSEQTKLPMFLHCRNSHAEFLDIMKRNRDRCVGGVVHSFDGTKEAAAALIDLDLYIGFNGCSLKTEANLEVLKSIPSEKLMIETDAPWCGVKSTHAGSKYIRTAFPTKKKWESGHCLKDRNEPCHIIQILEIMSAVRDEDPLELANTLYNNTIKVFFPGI
UniProt P51617, whole entry, looked up: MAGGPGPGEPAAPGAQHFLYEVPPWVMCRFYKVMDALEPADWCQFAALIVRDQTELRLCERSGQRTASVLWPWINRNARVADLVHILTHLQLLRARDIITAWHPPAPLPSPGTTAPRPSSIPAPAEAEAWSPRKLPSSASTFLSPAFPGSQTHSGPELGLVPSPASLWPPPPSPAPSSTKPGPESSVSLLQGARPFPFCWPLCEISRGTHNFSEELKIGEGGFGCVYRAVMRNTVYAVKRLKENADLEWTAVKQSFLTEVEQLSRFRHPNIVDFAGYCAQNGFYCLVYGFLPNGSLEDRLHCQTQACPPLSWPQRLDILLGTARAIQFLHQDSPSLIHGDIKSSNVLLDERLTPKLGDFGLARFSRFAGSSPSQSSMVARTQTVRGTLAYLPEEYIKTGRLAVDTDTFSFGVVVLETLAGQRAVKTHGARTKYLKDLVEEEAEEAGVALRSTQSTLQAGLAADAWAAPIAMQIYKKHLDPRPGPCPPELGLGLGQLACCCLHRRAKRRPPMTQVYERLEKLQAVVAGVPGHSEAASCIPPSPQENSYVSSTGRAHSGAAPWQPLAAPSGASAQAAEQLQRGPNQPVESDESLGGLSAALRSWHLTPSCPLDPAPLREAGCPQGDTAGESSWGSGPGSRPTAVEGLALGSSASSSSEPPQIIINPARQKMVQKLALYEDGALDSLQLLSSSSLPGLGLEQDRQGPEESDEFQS
UniProt Q14BN4: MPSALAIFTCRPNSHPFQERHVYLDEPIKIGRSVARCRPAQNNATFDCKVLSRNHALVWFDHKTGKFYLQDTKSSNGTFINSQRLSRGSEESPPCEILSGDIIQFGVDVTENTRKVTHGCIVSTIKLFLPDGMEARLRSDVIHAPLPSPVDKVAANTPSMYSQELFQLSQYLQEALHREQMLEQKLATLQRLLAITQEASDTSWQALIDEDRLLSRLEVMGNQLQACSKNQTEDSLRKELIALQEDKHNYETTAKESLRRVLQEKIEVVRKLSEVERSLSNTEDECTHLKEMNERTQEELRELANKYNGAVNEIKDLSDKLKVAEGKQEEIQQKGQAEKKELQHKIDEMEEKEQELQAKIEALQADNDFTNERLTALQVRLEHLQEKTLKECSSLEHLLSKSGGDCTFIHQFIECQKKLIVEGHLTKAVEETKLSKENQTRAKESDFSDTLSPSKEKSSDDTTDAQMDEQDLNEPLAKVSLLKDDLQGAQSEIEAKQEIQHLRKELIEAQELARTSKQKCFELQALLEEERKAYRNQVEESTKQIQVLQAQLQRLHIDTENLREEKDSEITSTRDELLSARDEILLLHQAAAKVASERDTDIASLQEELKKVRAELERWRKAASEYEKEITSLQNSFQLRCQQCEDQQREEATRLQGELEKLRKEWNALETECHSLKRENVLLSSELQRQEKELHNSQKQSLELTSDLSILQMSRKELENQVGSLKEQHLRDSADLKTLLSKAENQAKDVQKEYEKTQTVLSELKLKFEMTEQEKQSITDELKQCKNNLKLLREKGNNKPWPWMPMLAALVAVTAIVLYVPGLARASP
UniProt Q32P44: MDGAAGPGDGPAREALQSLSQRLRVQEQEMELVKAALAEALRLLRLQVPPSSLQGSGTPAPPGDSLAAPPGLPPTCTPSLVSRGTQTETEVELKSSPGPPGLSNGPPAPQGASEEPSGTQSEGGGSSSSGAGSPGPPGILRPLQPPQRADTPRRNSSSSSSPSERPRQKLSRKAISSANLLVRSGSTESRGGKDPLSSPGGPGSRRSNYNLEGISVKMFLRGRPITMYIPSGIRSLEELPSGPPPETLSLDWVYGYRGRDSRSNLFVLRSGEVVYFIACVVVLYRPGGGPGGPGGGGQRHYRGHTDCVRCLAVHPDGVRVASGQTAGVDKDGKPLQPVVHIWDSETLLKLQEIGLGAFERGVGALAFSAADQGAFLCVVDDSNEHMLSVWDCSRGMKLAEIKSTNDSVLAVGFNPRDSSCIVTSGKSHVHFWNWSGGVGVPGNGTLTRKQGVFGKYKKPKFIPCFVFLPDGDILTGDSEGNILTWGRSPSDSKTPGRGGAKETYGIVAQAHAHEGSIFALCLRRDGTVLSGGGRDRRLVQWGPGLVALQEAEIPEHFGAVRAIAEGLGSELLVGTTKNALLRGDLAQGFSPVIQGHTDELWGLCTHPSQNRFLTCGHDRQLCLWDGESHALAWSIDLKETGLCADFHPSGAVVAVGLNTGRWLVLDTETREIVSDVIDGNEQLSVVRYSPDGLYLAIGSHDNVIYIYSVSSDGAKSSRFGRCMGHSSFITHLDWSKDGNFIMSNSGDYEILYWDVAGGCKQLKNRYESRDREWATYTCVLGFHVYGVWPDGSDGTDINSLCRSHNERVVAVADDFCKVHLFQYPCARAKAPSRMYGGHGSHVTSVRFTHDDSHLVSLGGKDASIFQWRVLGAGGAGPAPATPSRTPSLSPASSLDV
UniProt Q13098: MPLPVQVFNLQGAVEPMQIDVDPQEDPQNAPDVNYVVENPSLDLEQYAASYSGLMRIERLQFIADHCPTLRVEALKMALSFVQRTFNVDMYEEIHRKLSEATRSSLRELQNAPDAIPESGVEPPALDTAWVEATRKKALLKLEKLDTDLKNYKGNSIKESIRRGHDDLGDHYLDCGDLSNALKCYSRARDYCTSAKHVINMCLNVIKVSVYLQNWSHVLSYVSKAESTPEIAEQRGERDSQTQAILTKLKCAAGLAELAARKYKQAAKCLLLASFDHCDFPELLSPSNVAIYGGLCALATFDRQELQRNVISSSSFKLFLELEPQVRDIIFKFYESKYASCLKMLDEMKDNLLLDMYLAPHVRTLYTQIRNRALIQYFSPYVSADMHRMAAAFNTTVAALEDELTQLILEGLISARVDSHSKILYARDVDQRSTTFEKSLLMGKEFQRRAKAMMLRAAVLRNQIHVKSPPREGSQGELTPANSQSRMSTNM
UniProt P24864, whole entry: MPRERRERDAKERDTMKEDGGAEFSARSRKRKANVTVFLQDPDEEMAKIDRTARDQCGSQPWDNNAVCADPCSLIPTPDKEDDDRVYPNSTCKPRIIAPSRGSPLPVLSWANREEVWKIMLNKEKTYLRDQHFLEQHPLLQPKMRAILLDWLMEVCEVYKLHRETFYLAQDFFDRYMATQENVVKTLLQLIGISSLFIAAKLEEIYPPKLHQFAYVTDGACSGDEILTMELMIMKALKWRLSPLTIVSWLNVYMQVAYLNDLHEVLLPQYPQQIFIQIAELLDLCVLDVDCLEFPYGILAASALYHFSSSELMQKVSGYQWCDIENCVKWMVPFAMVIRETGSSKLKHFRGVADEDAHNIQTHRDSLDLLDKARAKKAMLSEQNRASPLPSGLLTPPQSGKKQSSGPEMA
UniProt P78330: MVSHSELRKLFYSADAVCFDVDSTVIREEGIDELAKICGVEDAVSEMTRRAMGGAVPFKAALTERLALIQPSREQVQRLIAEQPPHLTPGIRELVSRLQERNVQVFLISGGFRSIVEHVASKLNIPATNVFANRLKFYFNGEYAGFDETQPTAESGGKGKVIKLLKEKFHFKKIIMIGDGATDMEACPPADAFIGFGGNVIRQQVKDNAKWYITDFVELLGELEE
UniProt A2RRP1: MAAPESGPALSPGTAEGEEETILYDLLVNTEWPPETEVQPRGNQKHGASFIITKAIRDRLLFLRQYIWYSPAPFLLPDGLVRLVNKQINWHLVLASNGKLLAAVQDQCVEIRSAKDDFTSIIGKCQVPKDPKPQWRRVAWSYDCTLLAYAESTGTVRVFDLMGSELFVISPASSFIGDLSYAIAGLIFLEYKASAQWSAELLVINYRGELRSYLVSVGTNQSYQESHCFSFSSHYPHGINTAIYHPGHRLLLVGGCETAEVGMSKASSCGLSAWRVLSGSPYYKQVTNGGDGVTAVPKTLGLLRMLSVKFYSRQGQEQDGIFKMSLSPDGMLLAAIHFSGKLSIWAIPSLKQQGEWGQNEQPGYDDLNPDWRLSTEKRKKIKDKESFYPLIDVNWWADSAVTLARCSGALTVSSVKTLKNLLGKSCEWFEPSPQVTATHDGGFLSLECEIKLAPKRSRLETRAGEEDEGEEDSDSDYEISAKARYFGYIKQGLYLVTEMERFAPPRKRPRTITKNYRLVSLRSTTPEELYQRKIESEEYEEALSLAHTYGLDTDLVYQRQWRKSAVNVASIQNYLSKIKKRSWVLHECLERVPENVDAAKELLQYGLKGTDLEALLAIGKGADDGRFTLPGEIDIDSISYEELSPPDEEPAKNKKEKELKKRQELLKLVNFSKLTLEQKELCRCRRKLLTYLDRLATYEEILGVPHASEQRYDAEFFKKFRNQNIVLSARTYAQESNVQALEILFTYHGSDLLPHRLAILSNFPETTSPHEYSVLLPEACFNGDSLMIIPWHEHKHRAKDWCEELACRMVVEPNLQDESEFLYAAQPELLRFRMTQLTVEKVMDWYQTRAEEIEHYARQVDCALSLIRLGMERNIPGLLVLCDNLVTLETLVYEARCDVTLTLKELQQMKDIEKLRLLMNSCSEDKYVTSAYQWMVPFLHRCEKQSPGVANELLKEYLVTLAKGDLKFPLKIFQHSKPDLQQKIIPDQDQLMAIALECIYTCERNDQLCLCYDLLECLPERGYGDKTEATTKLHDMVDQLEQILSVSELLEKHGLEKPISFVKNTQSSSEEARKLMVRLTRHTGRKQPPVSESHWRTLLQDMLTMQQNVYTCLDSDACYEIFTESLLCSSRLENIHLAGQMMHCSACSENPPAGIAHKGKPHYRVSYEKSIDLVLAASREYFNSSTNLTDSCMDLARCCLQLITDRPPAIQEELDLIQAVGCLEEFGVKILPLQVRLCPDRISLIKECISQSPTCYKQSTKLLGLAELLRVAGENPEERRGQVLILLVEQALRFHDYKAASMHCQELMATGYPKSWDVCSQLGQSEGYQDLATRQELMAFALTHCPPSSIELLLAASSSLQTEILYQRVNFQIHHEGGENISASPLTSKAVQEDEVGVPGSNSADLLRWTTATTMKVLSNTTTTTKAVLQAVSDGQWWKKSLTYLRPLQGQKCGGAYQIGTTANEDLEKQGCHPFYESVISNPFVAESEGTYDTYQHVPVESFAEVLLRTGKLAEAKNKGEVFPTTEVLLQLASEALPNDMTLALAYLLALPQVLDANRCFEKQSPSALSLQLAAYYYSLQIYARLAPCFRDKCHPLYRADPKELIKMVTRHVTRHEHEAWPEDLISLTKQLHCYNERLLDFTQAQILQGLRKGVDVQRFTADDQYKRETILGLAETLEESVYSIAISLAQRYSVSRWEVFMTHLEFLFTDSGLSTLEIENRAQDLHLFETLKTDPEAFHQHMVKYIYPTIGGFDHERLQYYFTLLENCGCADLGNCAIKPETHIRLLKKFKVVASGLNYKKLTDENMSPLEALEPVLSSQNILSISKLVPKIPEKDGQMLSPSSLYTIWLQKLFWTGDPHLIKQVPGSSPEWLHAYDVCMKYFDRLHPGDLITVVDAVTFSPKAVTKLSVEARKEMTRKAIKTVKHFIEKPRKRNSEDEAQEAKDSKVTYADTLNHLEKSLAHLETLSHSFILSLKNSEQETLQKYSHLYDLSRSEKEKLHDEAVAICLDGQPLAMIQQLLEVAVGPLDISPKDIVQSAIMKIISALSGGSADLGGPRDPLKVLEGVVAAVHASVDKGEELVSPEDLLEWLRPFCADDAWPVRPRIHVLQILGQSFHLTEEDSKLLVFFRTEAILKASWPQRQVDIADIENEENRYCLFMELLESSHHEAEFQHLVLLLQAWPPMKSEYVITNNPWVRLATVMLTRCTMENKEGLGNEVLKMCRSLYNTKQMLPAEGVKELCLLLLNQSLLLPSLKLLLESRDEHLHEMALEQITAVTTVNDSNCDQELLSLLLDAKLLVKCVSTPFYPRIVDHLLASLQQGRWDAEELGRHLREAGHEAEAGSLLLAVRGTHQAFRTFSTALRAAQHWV
UniProt Q15257: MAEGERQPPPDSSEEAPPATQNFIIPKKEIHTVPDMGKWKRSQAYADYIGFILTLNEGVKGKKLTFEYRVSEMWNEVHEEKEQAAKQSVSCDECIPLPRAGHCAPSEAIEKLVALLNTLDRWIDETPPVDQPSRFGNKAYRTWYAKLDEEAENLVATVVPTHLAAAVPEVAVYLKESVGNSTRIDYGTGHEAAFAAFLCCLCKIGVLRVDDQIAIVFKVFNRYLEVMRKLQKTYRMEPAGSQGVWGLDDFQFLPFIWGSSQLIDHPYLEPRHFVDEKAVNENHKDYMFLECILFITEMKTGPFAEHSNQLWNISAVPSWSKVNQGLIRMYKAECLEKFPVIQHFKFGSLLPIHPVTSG

Target | NP40-soluble protein abundance
B4DI03 and related entries (UniProt Q9BY50) | 0.973 ± 0.045
E5RHG8 and related entries (UniProt Q15369) | 0.999 ± 0.013
E5RG17 and related entries (UniProt Q6P1N9) | 0.975 ± 0.02
D3YTB5 and related entries (UniProt P51617) | 1.02 ± 0.02
A6NEP9 and related entries (UniProt Q8NG11) | 0.985 ± 0.044
B5MCU0 (UniProt Q9Y2K5) | 0.9864 ± 0.0045
B7Z863 and related entries (UniProt Q14BN4) | 0.988 ± 0.019
A2RQR6 and related entries (UniProt Q96EI5) | 0.969 ± 0.019
B3KVK2 and related entries (UniProt P62873) | 0.997 ± 0.061
A9X3U0 and related entries (UniProt Q96GF1) | 0.988 ± 0.048
A6NCE7 and related entries (UniProt Q9GZQ8+H3BTL1+A6NCE7) | 1.02 ± 0.054
B3KR61 and related entries (UniProt Q5TEU4) | 1.01 ± 0.033
C9J406 and related entries (UniProt Q16891) | 0.985 ± 0.053
C9JJ19 and related entries (UniProt P82930) | 1.07 ± 0.028
B7WPE2 and related entries (UniProt Q32P44) | 1.01 ± 0.016
D6R9V8 and related entries (UniProt Q9UKY7) | 0.954 ± 0.015
B4E3Q4 and related entries (UniProt Q9NZK5) | 1.04 ± 0.036
B4DRN8 and related entries (UniProt Q5W0Z9) | 1.01 ± 0.021
C9JUL4 and related entries (UniProt Q9UDY4) | 0.965 ± 0.05

Target | NP40-soluble protein abundance
C9J7Z4 and related entries (UniProt Q8NCE0) | 0.992 ± 0.037
C9JFE4 and related entries (UniProt Q13098) | 0.992 ± 0.04
C9JEX3 and related entries (UniProt Q13614) | 0.9953 ± 0.0091
C9J2U0 and related entries (UniProt P24864) | 0.999 ± 0.0098
C9JBI3 and related entries (UniProt P78330) | 0.995 ± 0.023
D6RBY0 and related entries (UniProt Q8TAC1) | 1.005 ± 0.0053
C9J2Y9 and related entries (UniProt P30876) | 1.04 ± 0.034
C9JFR7 and related entries (UniProt P99999) | 0.961 ± 0.076
B5MCQ4 (UniProt Q9BY27) | 0.992 ± 0.046
B8ZZS2 and related entries (UniProt Q13506) | 0.977 ± 0.023
B1AL69 and related entries (UniProt Q7L3B6) | 1.01 ± 0.011
UniProt A2RRP1 and related entries | 1.01 ± 0.051
A6PVN5 and related entries (UniProt Q15257) | 1.03 ± 0.048
D3YTB1 and related entries (UniProt P62910) | 1.03 ± 0.064
C9J712 and related entries (UniProt P35080) | 1.01 ± 0.046
C9JDQ1 and related entries (UniProt Q13724) | 1 ± 0.011
B7WPL0 and related entries (UniProt Q9NVN3) | 1.02 ± 0.022
D6R9Q5 and related entries (UniProt Q9UM13) | 1.04 ± 0.021

Some of the entries above in another layout:
Target	NP40-soluble protein abundance
C9J7Z4 and related entries (UniProt Q8NCE0)	0.992 ± 0.037
C9JFR7 and related entries (UniProt P99999)	0.961 ± 0.076
C9J712 and related entries (UniProt P35080)	1.01 ± 0.046

Reference: the supplement of paper PMC6411743
